Laboratory results taken from the supplement of paper PMC10849652.
The other results are listed elsewhere or left out.

Chains of the proteins cited; added tags and fusions are not shown. Lines headed by an entry give the natural chain unless they say otherwise; changes in a name come on top.
UniProt Q9HD45: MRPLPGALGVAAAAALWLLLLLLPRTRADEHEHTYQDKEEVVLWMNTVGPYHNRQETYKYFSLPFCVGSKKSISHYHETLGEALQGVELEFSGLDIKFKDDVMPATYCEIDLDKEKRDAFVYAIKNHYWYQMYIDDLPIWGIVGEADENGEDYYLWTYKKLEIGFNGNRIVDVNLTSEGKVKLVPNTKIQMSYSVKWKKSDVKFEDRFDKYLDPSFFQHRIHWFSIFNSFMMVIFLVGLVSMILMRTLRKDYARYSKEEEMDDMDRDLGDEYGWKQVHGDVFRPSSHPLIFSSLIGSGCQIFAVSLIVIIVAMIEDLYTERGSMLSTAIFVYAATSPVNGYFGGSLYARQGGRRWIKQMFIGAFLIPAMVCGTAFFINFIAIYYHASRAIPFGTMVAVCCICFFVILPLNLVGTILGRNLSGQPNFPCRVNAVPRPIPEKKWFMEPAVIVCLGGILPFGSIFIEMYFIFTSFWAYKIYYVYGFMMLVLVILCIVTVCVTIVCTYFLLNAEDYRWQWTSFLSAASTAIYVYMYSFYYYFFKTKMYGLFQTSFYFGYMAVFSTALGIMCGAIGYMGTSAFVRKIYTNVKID
UniProt Q8TBQ9: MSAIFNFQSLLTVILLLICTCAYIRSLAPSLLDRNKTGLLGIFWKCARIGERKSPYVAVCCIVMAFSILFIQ
UniProt Q15363: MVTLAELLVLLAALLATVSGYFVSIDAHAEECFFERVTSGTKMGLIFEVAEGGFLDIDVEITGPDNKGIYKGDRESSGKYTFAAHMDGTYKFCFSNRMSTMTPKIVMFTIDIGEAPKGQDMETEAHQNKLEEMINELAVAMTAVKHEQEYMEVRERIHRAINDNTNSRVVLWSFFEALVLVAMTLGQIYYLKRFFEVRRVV
UniProt Q8TDI8: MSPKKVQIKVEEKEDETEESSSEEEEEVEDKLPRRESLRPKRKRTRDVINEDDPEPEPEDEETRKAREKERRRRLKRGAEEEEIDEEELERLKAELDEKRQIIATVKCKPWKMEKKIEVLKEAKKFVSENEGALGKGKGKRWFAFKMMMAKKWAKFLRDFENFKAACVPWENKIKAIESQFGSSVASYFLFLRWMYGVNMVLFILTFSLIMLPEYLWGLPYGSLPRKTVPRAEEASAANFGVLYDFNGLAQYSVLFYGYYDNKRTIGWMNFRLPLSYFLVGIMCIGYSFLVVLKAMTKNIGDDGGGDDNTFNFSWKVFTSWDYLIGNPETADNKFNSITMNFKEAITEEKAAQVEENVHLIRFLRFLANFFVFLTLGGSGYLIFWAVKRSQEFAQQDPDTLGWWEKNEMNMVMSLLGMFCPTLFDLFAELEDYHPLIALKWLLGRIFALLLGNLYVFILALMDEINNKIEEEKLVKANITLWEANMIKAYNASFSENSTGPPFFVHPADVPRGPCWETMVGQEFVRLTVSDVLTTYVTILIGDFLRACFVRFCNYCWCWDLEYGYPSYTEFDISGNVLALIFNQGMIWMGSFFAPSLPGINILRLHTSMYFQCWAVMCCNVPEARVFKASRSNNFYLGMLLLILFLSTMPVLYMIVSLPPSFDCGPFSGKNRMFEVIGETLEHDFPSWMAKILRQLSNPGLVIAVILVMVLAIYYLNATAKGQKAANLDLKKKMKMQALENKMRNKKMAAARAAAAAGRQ
UniProt Q9NX00: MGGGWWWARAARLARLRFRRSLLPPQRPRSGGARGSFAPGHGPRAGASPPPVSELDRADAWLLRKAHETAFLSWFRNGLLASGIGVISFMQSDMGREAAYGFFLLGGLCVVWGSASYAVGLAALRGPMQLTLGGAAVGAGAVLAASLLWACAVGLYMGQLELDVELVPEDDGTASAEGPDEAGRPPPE
UniProt Q9UM00: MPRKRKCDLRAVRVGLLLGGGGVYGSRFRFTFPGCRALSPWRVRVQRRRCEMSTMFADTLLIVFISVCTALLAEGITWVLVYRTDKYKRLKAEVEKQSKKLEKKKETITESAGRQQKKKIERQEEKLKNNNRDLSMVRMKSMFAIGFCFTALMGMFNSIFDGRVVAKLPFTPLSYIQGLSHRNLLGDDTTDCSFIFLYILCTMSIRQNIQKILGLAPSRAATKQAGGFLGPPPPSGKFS
UniProt Q9Y2S6, whole entry, looked up: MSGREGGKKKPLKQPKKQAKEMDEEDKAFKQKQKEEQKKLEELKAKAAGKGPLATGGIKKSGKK
UniProt Q9H1E5: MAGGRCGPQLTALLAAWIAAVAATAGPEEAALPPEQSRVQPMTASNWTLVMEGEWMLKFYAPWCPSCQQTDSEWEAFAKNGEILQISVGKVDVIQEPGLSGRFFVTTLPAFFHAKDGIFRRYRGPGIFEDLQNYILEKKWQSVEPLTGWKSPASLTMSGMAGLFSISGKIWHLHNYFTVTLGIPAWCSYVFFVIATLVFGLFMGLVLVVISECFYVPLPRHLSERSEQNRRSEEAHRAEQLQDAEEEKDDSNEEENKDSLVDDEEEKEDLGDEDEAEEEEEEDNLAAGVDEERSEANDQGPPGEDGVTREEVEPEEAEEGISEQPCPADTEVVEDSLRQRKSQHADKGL
UniProt Q8N511: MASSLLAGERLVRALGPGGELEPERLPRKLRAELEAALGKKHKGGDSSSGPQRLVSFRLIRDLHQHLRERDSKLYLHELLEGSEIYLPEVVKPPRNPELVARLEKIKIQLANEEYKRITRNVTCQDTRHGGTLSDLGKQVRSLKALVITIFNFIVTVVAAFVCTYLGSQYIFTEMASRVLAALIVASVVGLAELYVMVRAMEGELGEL
UniProt Q5BJF2, whole entry, looked up: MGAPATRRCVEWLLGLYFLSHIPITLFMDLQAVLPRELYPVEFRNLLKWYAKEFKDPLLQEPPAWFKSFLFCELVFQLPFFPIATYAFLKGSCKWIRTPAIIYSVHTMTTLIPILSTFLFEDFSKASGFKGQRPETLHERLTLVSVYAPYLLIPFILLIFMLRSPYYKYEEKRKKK
UniProt Q9H7F4: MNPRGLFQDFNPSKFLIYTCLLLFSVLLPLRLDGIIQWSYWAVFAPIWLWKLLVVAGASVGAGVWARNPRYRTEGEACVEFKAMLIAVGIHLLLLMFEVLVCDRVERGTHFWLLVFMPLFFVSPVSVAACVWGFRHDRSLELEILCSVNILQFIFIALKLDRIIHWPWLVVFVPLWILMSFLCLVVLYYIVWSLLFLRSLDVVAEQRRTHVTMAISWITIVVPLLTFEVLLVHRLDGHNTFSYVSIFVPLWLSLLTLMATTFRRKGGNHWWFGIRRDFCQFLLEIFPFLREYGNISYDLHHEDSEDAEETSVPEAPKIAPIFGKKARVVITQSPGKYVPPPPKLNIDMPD
UniProt O94886: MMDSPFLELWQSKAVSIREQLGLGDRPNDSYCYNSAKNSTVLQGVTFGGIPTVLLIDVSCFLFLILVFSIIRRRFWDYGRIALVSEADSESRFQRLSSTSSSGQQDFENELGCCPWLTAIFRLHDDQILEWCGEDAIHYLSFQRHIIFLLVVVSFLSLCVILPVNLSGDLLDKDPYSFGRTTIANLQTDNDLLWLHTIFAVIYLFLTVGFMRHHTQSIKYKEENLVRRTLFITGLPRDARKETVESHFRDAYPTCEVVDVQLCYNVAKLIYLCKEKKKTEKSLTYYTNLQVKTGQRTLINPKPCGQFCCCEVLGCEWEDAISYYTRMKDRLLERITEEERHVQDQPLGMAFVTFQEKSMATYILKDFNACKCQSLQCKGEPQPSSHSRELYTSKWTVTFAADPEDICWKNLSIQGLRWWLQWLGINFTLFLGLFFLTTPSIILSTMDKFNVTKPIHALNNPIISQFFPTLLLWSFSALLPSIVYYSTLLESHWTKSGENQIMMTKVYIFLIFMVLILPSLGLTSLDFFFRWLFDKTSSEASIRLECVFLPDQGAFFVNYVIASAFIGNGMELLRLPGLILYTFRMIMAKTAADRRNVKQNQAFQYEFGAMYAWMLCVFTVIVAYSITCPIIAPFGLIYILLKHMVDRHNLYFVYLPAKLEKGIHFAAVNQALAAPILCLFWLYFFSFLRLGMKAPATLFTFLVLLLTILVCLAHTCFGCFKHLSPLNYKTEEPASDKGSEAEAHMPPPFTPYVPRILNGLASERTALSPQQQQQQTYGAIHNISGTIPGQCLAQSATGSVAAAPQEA
UniProt Q5BJD5: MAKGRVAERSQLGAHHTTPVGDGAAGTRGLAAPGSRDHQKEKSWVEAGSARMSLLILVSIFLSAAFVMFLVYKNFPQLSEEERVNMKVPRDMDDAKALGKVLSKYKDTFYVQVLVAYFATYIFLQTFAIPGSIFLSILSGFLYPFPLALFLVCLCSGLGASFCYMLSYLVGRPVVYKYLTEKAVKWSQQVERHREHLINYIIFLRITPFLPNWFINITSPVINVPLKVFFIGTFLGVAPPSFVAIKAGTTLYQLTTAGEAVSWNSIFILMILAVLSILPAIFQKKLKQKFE
UniProt Q9H3N1: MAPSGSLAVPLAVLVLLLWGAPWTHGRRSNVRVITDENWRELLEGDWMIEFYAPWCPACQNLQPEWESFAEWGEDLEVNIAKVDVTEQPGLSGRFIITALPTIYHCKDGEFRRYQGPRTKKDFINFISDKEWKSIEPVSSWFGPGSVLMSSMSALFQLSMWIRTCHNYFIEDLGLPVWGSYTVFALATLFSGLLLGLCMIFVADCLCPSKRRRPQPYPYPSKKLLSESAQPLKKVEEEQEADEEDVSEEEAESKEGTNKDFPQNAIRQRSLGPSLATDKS
UniProt P42167: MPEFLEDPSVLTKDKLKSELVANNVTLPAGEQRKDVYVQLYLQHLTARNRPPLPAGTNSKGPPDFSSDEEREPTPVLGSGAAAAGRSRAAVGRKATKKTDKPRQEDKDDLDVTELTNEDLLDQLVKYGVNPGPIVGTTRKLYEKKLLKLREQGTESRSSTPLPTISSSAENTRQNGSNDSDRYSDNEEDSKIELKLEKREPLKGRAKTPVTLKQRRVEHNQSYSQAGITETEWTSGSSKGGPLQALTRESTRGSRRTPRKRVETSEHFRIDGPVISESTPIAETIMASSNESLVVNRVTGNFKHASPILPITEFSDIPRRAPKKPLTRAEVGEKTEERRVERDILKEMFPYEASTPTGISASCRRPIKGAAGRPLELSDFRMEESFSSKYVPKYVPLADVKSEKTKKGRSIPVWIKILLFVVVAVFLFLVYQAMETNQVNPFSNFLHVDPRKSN
UniProt P63313: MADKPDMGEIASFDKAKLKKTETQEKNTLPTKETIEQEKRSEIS
UniProt P57088: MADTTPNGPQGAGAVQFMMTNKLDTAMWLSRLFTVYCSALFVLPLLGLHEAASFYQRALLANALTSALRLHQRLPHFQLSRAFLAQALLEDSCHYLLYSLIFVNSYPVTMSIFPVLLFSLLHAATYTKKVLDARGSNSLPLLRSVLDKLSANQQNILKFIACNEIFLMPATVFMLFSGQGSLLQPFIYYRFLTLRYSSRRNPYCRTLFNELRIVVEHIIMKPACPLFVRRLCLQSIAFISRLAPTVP
UniProt Q9NVH6: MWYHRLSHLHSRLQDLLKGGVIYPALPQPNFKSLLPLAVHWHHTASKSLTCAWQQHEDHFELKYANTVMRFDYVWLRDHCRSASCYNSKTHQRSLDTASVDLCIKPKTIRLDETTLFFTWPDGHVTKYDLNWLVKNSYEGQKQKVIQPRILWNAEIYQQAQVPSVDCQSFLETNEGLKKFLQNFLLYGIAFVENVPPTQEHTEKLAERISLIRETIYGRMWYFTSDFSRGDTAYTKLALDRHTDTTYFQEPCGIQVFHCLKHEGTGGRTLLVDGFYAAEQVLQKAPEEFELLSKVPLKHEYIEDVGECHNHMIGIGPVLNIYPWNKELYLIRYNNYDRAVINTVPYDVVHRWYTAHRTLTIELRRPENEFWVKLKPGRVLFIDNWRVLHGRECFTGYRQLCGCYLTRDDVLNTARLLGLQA
UniProt P49755: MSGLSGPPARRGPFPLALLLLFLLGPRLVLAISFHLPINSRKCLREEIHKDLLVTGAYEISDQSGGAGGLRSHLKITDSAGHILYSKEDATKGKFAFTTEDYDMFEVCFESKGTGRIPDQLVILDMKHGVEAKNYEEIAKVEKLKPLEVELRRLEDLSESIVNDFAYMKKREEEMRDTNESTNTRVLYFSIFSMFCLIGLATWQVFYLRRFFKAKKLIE
UniProt Q9BVT8: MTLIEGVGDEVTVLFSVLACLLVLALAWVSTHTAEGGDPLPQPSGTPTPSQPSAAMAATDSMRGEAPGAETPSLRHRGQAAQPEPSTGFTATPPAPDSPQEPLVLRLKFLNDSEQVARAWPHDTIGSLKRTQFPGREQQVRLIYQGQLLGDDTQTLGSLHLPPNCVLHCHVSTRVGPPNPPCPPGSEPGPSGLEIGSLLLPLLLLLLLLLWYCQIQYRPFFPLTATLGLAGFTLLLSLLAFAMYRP
UniProt Q9NYL9: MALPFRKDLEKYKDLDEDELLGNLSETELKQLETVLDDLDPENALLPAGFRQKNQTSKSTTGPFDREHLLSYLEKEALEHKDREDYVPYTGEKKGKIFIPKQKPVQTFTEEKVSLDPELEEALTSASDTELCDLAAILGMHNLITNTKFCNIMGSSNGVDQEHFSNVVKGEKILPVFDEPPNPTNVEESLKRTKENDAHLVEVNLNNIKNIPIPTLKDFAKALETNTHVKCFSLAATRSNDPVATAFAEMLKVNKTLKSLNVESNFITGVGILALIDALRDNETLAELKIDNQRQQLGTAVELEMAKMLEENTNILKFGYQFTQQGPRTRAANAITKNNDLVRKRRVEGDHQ

Compound: CCn1c(C(=O)N(C2CC2)C2CC2)cc2c3c(ncn3C)c(Nc3cc(C)n(C)n3)nc21
Assay: log2 fold change, soluble protein after heating vs DMSO (PISA); higher = thermal stabilisation; K562 cells, 10 uM, 30 min; active = over 0.2 and 3.5 SD of the protein, either way, in both replicates (recomputed)
How it was run: (§1)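 Thermal stability values are relative to control samples and come from duplicates. They are expressed as log2 fold changes. For measurement, K562 cells (2×10^6 cells/mL) received 10 μM compound for 30 min, and aliquots were heated for 3 min over 48°C-58°C, pooled, and extracted at 4°C in PBS with 0.5% NP-40. Soluble protein, the supernatant after 21,000xg for 90 min, was quantified by TMTpro 16plex LC-MS/MS with equalised channel sums.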

log2 fold change, inactive:
TM9SF3 (UniProt Q9HD45) -0.003
TMA16 (UniProt Q96EY4) 0.017
TMEM167A (UniProt Q8TBQ9) 0.024
TMED2 (UniProt Q15363) 0.066
TMC1 (UniProt Q8TDI8) 0.006
TMEM115 (UniProt Q12893) 0.002
TMEM160 (UniProt Q9NX00) 0.018
TMCO1 (UniProt Q9UM00) 0.015
TLN1 (UniProt Q9Y490) 0
TMA7 (UniProt Q9Y2S6) 0.034
TMX4 (UniProt Q9H1E5) -0.081
TMED1 (UniProt Q13445) 0
TMEM245 (UniProt Q9H330) -0.004
TMEM68 (UniProt Q96MH6) 0.017
TMEM199 (UniProt Q8N511) -0.019
TMEM62 (UniProt Q0P6H9) 0.032
TMEM97 (UniProt Q5BJF2) 0.037
TMEM185B (UniProt Q9H7F4) -0.055
TMEM209 (UniProt Q96SK2) -0.011
TMEM63A (UniProt O94886) 0.036
TMEM41B (UniProt Q5BJD5) 0
TMX1 (UniProt Q9H3N1) 0.005
TMED3 (UniProt Q9Y3Q3) 0.015
TM2D3 (UniProt Q9BRN9) 0.013
TMEM87A (UniProt Q8NBN3) 0.045
TMPO (UniProt P42167) 0
TMSB10 (UniProt P63313) 0.036
TMEM33 (UniProt P57088) 0.014
TMEM65 (UniProt Q6PI78) -0.035
TMED4 (UniProt Q7Z7H5) -0.016
TMLHE isoform 8 (UniProt Q9NVH6) 0.058
TMEM11 (UniProt P17152) 0.046
TMOD1 (UniProt P28289) 0.01
TMOD2 (UniProt Q9NZR1) 0.133
TMEM189 (UniProt A5PLL7) 0.037
TMED10 (UniProt P49755) 0.022
TMUB1 (UniProt Q9BVT8) -0.054
TMOD3 (UniProt Q9NYL9) -0.027

Compound: CCn1cc(-c2ccnc3[nH]c(-c4cccc(CN(C)C)c4)cc23)c(-c2ccc(NC(=O)N(C)C)cc2)n1
Assay: as above
How it was run: as §1

log2 fold change, inactive:
TM9SF3 (UniProt Q9HD45) -0.037
TMA16 (UniProt Q96EY4) 0.2
TMEM167A (UniProt Q8TBQ9) -0.033
TMED2 (UniProt Q15363) 0.025
TMC1 (UniProt Q8TDI8) 0.1
TMEM115 (UniProt Q12893) 0.006
TMEM160 (UniProt Q9NX00) 0.021
TMCO1 (UniProt Q9UM00) 0.032
TLN1 (UniProt Q9Y490) -0.027
TMA7 (UniProt Q9Y2S6) 0.048
TMX4 (UniProt Q9H1E5) 0.038
TMED1 (UniProt Q13445) 0.002
TMEM245 (UniProt Q9H330) 0.015
TMEM68 (UniProt Q96MH6) -0.079
TMEM199 (UniProt Q8N511) 0.026
TMEM62 (UniProt Q0P6H9) 0.015
TMEM97 (UniProt Q5BJF2) -0.005
TMEM185B (UniProt Q9H7F4) 0.063
TMEM209 (UniProt Q96SK2) 0.004
TMEM63A (UniProt O94886) 0.052
TMEM41B (UniProt Q5BJD5) -0.043
TMX1 (UniProt Q9H3N1) -0.01
TMED3 (UniProt Q9Y3Q3) -0.074
TM2D3 (UniProt Q9BRN9) -0.018
TMEM87A (UniProt Q8NBN3) -0.015
TMPO (UniProt P42167) 0.02
TMSB10 (UniProt P63313) -0.022
TMEM33 (UniProt P57088) 0
TMEM65 (UniProt Q6PI78) -0.001
TMED4 (UniProt Q7Z7H5) -0.028
TMLHE isoform 8 (UniProt Q9NVH6) 0.001
TMEM11 (UniProt P17152) -0.04
TMOD1 (UniProt P28289) 0.046
TMOD2 (UniProt Q9NZR1) -0.051
TMEM189 (UniProt A5PLL7) -0.067
TMED10 (UniProt P49755) 0.029
TMUB1 (UniProt Q9BVT8) 0.039
TMOD3 (UniProt Q9NYL9) 0.019
